According to article PMC11442470:
No constants are given. Whether binding was seen depends on the method and setting. Binding seen in cells or lysates may run through a third protein. Binding can be weak; no strength is given. Tags and fused reporters may be left off the sequences shown.

Molecular target: T1, FLAG-tagged full-length PDZD8, stably expressed in MEFs (human) (UniProt Q8NEN9)
T1 sequence: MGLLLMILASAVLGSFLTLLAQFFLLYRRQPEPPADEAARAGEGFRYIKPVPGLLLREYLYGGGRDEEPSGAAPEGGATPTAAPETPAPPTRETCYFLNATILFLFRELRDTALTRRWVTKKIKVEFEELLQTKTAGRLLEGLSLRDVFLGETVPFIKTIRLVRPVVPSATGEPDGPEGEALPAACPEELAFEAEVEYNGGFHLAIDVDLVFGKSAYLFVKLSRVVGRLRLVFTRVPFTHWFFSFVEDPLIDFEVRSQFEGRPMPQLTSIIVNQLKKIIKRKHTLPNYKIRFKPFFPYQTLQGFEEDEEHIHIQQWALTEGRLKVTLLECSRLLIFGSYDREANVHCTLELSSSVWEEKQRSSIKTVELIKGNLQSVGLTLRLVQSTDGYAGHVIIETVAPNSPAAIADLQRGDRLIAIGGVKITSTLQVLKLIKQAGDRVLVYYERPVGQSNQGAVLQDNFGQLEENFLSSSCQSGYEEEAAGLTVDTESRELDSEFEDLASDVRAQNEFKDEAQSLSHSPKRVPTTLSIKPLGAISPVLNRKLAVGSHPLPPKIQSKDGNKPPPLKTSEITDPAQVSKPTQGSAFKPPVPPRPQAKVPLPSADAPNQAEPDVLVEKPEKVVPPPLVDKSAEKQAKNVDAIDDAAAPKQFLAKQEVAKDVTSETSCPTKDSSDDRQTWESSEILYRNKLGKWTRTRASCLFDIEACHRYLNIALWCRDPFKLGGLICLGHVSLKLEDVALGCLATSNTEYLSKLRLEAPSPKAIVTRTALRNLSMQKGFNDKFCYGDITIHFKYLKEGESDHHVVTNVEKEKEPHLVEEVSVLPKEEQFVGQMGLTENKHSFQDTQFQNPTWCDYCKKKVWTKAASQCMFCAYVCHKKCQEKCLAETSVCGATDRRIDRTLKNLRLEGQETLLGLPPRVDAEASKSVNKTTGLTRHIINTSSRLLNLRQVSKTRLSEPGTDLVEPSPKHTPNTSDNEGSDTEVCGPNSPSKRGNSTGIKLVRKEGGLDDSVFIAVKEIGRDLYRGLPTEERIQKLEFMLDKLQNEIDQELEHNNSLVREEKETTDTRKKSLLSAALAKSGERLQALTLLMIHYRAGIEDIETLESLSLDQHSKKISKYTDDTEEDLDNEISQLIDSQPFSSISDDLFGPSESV
Test: co-IP; MEFs stably expressing FLAG-tagged PDZD8, Triton lysis buffer (20 mM Tris-HCl pH 7.5, 150 mM NaCl, 1% Triton X-100), anti-FLAG M2 gel, elution with FLAG peptide, blot for endogenous 14-3-3

## chaperone protein 14-3-3, endogenous in MEFs (mouse (endogenous in MEFs))
  binding: binds
